This is one part of the list. Further columns of the screen follow, without active or inactive calls. The list favours compounds with an active or inconclusive main result. The note in brackets gives the kind of curve behind each potency; many fits are weak.
Experiment: qHTS Assay for Lipid Storage Modulators in Drosophila S3 Cells;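 on cell number change: cells counted by Cell Tracker Red CMTPX staining in the red channel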
Details: BODIPY lipid droplet fluorescence, 18-24 h; for cell number change: measured here: cell count max response, cells fed with added oleic acid
Summary of the method: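 Laser-scanning cytometry quantifies lipid droplet accumulation (500–530 nm total intensity; droplet/cell object ratio) in oleic acid-fed (400 uM added) Drosophila S3 cells treated with a concentration series. 20 uM Triacsin C defined 100% inhibition.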

[1] = measured here: lipid fluorescence (Fed channel) AC50, cells fed with added oleic acid
[2] = measured here: cell number channel AC50, cells fed with added oleic acid

Compound	cell number change [%]	AC50 [1]	AC50 [2]
CCOC(=O)C1CCN(Cc2cccc(Oc3ccccc3)c2)CC1	-11.9	3.66 µM [falling, single point]	
Cc1nc(N(CCO)C2CCCCC2)c2nnn(Cc3ccccc3)c2n1	5.52	20.6 µM [falling, single point]	
CCc1nc(SCC(N)=O)c2c(=O)n(C)c(=O)n(C)c2n1			0.366 µM [rising, single point]
CCOC(=O)N1CCN(c2nc(C(F)(F)F)nc3c(C)cc(C)cc23)CC1	-0.957	3.26 µM [rising, full curve]	
Nc1nc(-c2cccc(Br)c2)cs1	4.65		
O=C(NCc1cccnc1)c1ccccc1CCc1ccccc1	-17.5		
CCOc1ccc(CN2CCNC(=O)C2CC(=O)NCCc2nc(C)c3c(n2)CCC3)cc1 (centres undefined)		3.26 µM [rising, single point]	
N=C(N)n1c(N)nc2ccccc2c1=O	12.3	6.51 µM [falling, single point]	
Cc1cc2ccc(C)c(C)c2nc1SCC(=O)c1cccs1	60.7	2.31 µM [rising, partial curve]	0.651 µM [rising, full curve, poor fit]
Cc1cc(NC(=O)c2ccc([N+](=O)[O-])o2)ccc1NC(=O)c1ccco1	-63	8.2 µM [falling, partial curve]	14.6 µM [falling, partial curve]
Cc1ccccc1C(=O)NC(NC(=O)c1ccccc1C)c1cccc([N+](=O)[O-])c1		4.11 µM [rising, single point]	0.092 µM [falling, full curve, poor fit]
CCOC(=O)N1CCN(c2c(NCCN3CCN(c4ccccc4F)CC3)c(=O)c2=O)CC1	-13.2		3.26 µM [falling, single point]
COc1ccc(NC(=O)c2ccco2)c(OC)c1	50.2	6.51 µM [falling, partial curve, poor fit]	18.4 µM [rising, single point]
Cc1ccc(-c2nc(S(=O)(=O)c3ccc(C)cc3)c(N3CCOCC3)o2)cc1	-8.97	29.1 µM [rising, single point]	
O=C(N/N=C/c1ccc(Cl)s1)C(O)c1ccccc1 (centres undefined)	-13.2	0.116 µM [rising, full curve, poor fit]	
COc1ccc(NC(=O)CO/N=C2/CCCc3nonc32)c(OC)c1	8.06		0.411 µM [falling, full curve, poor fit]
N=C(N)SCc1cn2ccccc2n1	23		0.82 µM [rising, full curve, poor fit]
COCC(C)n1c(C)cc(C(=O)COC(=O)c2ccc(N3CCCC3=O)cc2)c1C (centres undefined)	9.07	5.8 µM [falling, single point]	
COc1ccc(NS(=O)(=O)c2cc(NC(=O)/C=C/c3ccccc3OC)ccc2N2CCCCC2)cc1	14.1	1.84 µM [rising, full curve]	
CCOc1ccccc1-c1nnc(SCC(=O)NC2(C#N)CCCC2)o1		32.6 µM [falling, single point]	

Compound	cell number change [%]	AC50 [1]	AC50 [2]
O=C(NCC(=O)N1CCCCCC1)c1ccc(OC(F)F)cc1	8.38		
CC(CCc1ccc(O)cc1)NC(c1ccccc1)c1ccc(Cl)cc1 (centres undefined)	-70.1	14.6 µM [falling, partial curve, poor fit]	18.4 µM [falling, partial curve]
CC(=O)N(\C=C/C=C/C=C1\Sc2ccccc2C1=O)c1ccccc1	-12.3	6.51 µM [falling, single point]	6.51 µM [falling, single point]
COc1ccc(CNC(=O)CN(C(=O)CCC(=O)Nc2nccs2)c2ccc(C)cc2)cc1	113		25.9 µM [rising, single point]
CCc1ccc(NC(=S)NNC(=O)c2ccccc2OC(F)F)cc1		0.00461 µM [rising, full curve, poor fit]	
CCOC(=O)C1=C(C)N(C)C(=O)NC1c1cccc2ccccc12 (centres undefined)	21.4		
S=c1[nH]nc(-c2ccco2)n1-c1ccc(Cl)cc1	-14.1	4.11 µM [falling, full curve, poor fit]	
O=C1CCC([N+](=O)[O-])C(c2cccc(Cl)c2Cl)N1 (centres undefined)	3.09		
Cc1ccc(/C=N/n2c(C3CCCCC3)n[nH]c2=S)o1	-47.6	11.6 µM [falling, partial curve, poor fit]	29.1 µM [falling, partial curve]
COc1ccc(-c2nnc(SCc3nnc(-c4ccc(Cl)cc4)o3)n2-c2ccccc2)cc1	-36	2.31 µM [rising, partial curve]	7.31 µM [falling, partial curve]
CCCc1cc(=O)[nH]c2nnc(SCC(=O)Nc3ccc(NC(C)=O)cc3)n12	-24.8	10.3 µM [falling, partial curve, poor fit]	
CC(C)OCCCn1c(=N)c(C(N)=S)cc2c(=O)n3ccccc3nc21	-17.3	4.11 µM [falling, full curve]	
O=C(c1cccc([N+](=O)[O-])c1)N1CCN(c2ccc(Cl)cc2)CC1	18.6	29.1 µM [rising, single point]	
CCOc1ccc(N(CC(=O)Nc2cc(Cl)ccc2C)S(C)(=O)=O)cc1	-8.14	29.1 µM [falling, single point]	
COc1cc(NC(=O)COC(=O)/C=C/c2ccc(O)c(OC)c2)cc(OC)c1	67.6	29.1 µM [rising, single point]	20.6 µM [rising, single point]
O=C(Nc1ccccc1)C(Cl)C(=O)c1ccccc1 (centres undefined)	-32.1	0.58 µM [falling, partial curve]	9.2 µM [falling, single point]
CC(Oc1ccc2ccccc2c1)C(=O)NNC(=S)NC(=O)c1ccco1 (centres undefined)	16.6		
Cc1c(C(=O)N2CC[C@@H](N3CCC(O)CC3)[C@H](O)C2)[nH]c2ccc(Cl)cc12	13.7	25.9 µM [rising, single point]	
Cc1noc(C)c1S(=O)(=O)Nc1ccc(C(=O)N2CCN(c3cccc(Cl)c3)CC2)cc1	43.1		14.6 µM [rising, partial curve]
O=c1c([N+](=O)[O-])c(N2CCCCC2)c2ccccc2n1-c1ccccc1	-72.7	20.6 µM [falling, partial curve]	20.6 µM [falling, partial curve]

3 records drawn at random from those above:
Compound	cell number change [%]	AC50 [1]	AC50 [2]
Cc1noc(C)c1S(=O)(=O)Nc1ccc(C(=O)N2CCN(c3cccc(Cl)c3)CC2)cc1	43.1		14.6 µM [rising, partial curve]
CCc1ccc(NC(=S)NNC(=O)c2ccccc2OC(F)F)cc1		0.00461 µM [rising, full curve, poor fit]	
COc1cc(NC(=O)COC(=O)/C=C/c2ccc(O)c(OC)c2)cc(OC)c1	67.6	29.1 µM [rising, single point]	20.6 µM [rising, single point]

Next results:

Compound	cell number change [%]	AC50 [1]	AC50 [2]
CCN(CC)C(=O)CSC(Nc1ccc(F)cc1)=C(C#N)C#N	17.5		
CC(=O)OCC(=O)Nc1ccc(Cl)cc1Cl	-23.8	14.6 µM [falling, partial curve, poor fit]	0.82 µM [falling, full curve, poor fit]
COCc1cc(C)n(CC(=O)Nc2cccc(C)c2)c(=O)c1C#N	38		0.231 µM [rising, full curve, poor fit]
CCNc1nc(N2CCCCC2)nc(-n2nnc(C(=O)OCC)c2C)n1		2.91 µM [rising, partial curve]	4.11 µM [rising, partial curve]
O=C(Nc1ccc2c(c1)OCCO2)C1CCN(S(=O)(=O)c2cccc3nsnc23)CC1	7.76	0.259 µM [rising, full curve, poor fit]	
O=C(CSc1ccc(-c2ccccc2)nn1)N1CCCc2ccccc21	2.13	6.51 µM [rising, single point]	
COC(=O)c1ccc(/C=N/OCC(=O)NC2CCCC(C)C2C)cc1 (centres undefined)	-9.97		
CCOC(=O)Cn1cc(/C=N/N2C(=O)C3C4C=CC(C4)C3C2=O)c2ccccc21 (centres undefined)	39.8		29.1 µM [rising, single point]
O=C1[C@@H]2Cc3c([nH]c4ccccc34)CN2C(=O)CN1CCCO		29.1 µM [rising, single point]	
CC1CCCCC1NC(=O)COC(=O)CCC(=O)c1cccs1 (centres undefined)	4.84	6.51 µM [falling, single point]	
Cc1ccc(OCCCC(=O)N2CCN(S(=O)(=O)c3cccc(F)c3)CC2)cc1	6.79		
O=C(CNc1cccc(S(=O)(=O)N2CCOCC2)c1)N1CCc2ccccc21	0.854	3.66 µM [falling, single point]	
O=C(CSc1nnc(NC(=O)c2c(F)cccc2F)s1)NC1CCCCC1		29.1 µM [rising, single point]	
COc1ccc(C(=O)CSc2nnc(-c3ccoc3C)n2CC2CCCO2)cc1 (centres undefined)	13.4	4.61 µM [rising, full curve, poor fit]	0.0103 µM [rising, full curve, poor fit]
Cc1cccc(-n2nnnc2SCC(=O)N(CC(C)C)c2c(N)n(CC(C)C)c(=O)[nH]c2=O)c1	91.1		20.6 µM [rising, single point]
CCOC(=O)c1cc(C#N)c(SCC(N)=O)[nH]c1=O	-3.06	6.51 µM [falling, single point]	
Cn1c2ccccc2c2nnc(SCCN3CCOCC3)nc21	1.39	20.6 µM [rising, partial curve]	
Cc1ccc(NC(=O)C2CCN(S(=O)(=O)c3c(C)noc3C)CC2)cc1C	-77	1.64 µM [falling, partial curve]	1.64 µM [falling, partial curve]
